Reference: PubChem BioAssay AID248 (DTP/NCI, 2004)
The list shows only some results of the screen, not a fair sample: it is rich in T/C values a quarter to a half above the control, in often repeated tests (any T/C) and in doses without a T/C. Further doses and runs are listed elsewhere. T/C is the treated group as % of the vehicle group. Some entries give survivors of the animals treated and no T/C: the source holds a T/C of zero for them, seemingly a mark for toxic or unscored doses. Some survivor counts are full or nearly so, which does not show that the dose was tolerated: the source hardly ever lists a survival T/C far under the control, and the zero likely stands for such cases as well. Survivors were counted at the toxicity check, usually on the fifth day, unless a day is given; later deaths do not show. Schedules are NCI's codes, taken here to give the interval after Q, in days (D) or hours (H), and the number of doses after X. Some entries were tested several times; the values are given in rising order. Some schedule codes hold Z or #, which are not explained here. For survival time, the PubChem record calls one and a half times the control and up active, and a quarter to a half above the control has no call in these data; cut-offs in other NCI protocols can differ. Some T/C values carry the count of animals alive at the toxicity check (mostly the fifth day); without a count, all were alive then.

Tested on: L1210 leukemia ip in BDF1 mice, survival T/C
Assay: NCI In Vivo Anticancer Drug Screen. Data for tumor model L1210 Leukemia (intraperitoneal) in B6D2F1 (BDF1) mice
Conditions: T/C endpoint: mean survival time, higher T/C = longer survival
[1] = dose: 200.0 mg/kg/injection, schedule: Q01DX009 (ip), vehicle: saline with Tween-80
[2] = dose: 400.0 mg/kg/injection, schedule: Q01DX009 (ip), vehicle: saline with Tween-80
[3] = dose: 200.0 mg/kg/injection, schedule: Q01DX001 (ip), vehicle: carboxymethylcellulose (CMC)
[4] = dose: 400.0 mg/kg/injection, schedule: Q01DX009 (ip), vehicle: Klucel (hydroxypropylcellulose) (HPC)
[5] = dose: 200.0 mg/kg/injection, schedule: Q01DX009 (ip), vehicle: saline
[6] = dose: 100.0 mg/kg/injection, schedule: Q01DX009 (ip), vehicle: saline with Tween-80
[7] = dose: 300.0 mg/kg/injection, schedule: Q01DX001 (ip), vehicle: saline
[8] = dose: 400.0 mg/kg/injection, schedule: Q04DX003 (ip), vehicle: Klucel (hydroxypropylcellulose) (HPC)

Compound: COc1ccc([N+](=O)[O-])cc1NS(=O)(=O)c1ccc(Cl)c([N+](=O)[O-])c1
- survivor count (dose: 100.0 mg/kg/injection, schedule: Q01DX009 (ip), vehicle: other): 6 of 6
- survivor count (dose: 200.0 mg/kg/injection, schedule: Q01DX009 (ip), vehicle: other): 2 of 3 and 4 of 6
- survivor count [1]: 3 of 3
- survivor count (dose: 400.0 mg/kg/injection, schedule: Q01DX009 (ip), vehicle: other): 6 of 6
- survivor count [2]: 2 of 3

Compound: CN(C)C1C2(C)CCC(C2)C1(C)C (centres undefined)
- survivor count (dose: 50.0 mg/kg/injection, schedule: Q01DX001 (ip), vehicle: carboxymethylcellulose (CMC)): 0 of 4
- survivor count (dose: 80.0 mg/kg/injection, schedule: Q01DX001 (ip), vehicle: carboxymethylcellulose (CMC)): 1 of 4
- survivor count (dose: 100.0 mg/kg/injection, schedule: Q01DX001 (ip), vehicle: carboxymethylcellulose (CMC)): 0 of 4
- survivor count [3]: 0 of 4
- survivor count (dose: 400.0 mg/kg/injection, schedule: Q01DX001 (ip), vehicle: carboxymethylcellulose (CMC)): 0 of 4

Compound: COc1cc(CC2COCC2Cc2ccc3c(c2)OCO3)cc(OC)c1OC (centres undefined)
- T/C (dose: 200.0 mg/kg/injection, schedule: Q01DX009 (ip), vehicle: acetone): 129 % of control [5 of 6 alive]

Compound: O=C(Nc1nccs1)Nc1cccc(Cl)c1Cl
- survivor count (dose: 100.0 mg/kg/injection, schedule: Q01DX009 (ip), vehicle: Klucel (hydroxypropylcellulose) (HPC)): 2 of 6 and 3 of 6
- survivor count (dose: 200.0 mg/kg/injection, schedule: Q01DX009 (ip), vehicle: Klucel (hydroxypropylcellulose) (HPC)): 0 of 6
- survivor count [4]: 0 of 6

Compound: CC(C)(C)c1ccc(C(=O)C2CC2)cc1
- survivor count [1]: 0 of 6

Compound: COc1ccc(OC(=O)Nc2ccc(Cl)cc2OC)cc1
- survivor count [4]: 6 of 6

Compound: CCOC(=O)C(CC)(OC(C)=O)C(=O)CBr (centres undefined)
- survivor count (dose: 150.0 mg/kg/injection, schedule: Q01DX001 (ip), vehicle: acetone): 0 of 6
- survivor count (dose: 300.0 mg/kg/injection, schedule: Q01DX001 (ip), vehicle: acetone): 0 of 6

Compound: CCOC(=O)CSC(=S)N(C)C
- survivor count (dose: 50.0 mg/kg/injection, schedule: Q01DX009 (ip), vehicle: Klucel (hydroxypropylcellulose) (HPC)): 3 of 3

Compound: COC1/C=C/OC2(C)Oc3c(C)c(O)c4c(O)c(c(/C=N/N5C(C)CN(Cc6ccc(C)cc6)CC5C)c(O)c4c3C2=O)NC(=O)C(C)=C/C=C/C(C)C(O)C(C)C(O)C(C)C(OC(C)=O)C1C (centres undefined)
- survivor count [1]: 6 of 6
- survivor count [2]: 2 of 6

Compound: Cc1nc(C(=O)O)cs1
- survivor count [5]: 5 of 6
- survivor count (dose: 400.0 mg/kg/injection, schedule: Q01DX001 (ip), vehicle: acetone): 2 of 6

Compound: CCN(CC)CC(=O)NCC(CCN1CCCCC1)c1cccc2ccccc12 (centres undefined)
- survivor count [5]: 0 of 6
- survivor count (dose: 400.0 mg/kg/injection, schedule: Q01DX009 (ip), vehicle: saline): 0 of 6

Compound: CCCC1OC(=O)C(C)O1 (centres undefined)
- survivor count [4]: 5 of 6

Compound: NC(N)=NC=O
- survivor count (dose: 400.0 mg/kg/injection, schedule: Q04DX002 (ip), vehicle: saline with Tween-80): 0 of 3

Compound: CC1=C(C)C(=O)C(SC2CC(=O)OC2=O)=C(C)C1=O (centres undefined)
- survivor count (dose: 200.0 mg/kg/injection, schedule: Q01DX001 (ip), vehicle: saline with Tween-80): 6 of 6
- survivor count (dose: 400.0 mg/kg/injection, schedule: Q01DX001 (ip), vehicle: saline with Tween-80): 6 of 6

Compound: CCCCc1c(Cl)nc(Cl)nc1Cl
- survivor count [6]: 0 of 6 and 1 of 6
- survivor count [1]: 0 of 6
- survivor count [2]: 0 of 6

Compound: Nc1nc(N)c(CCCOc2ccccc2)c(N)n1
- survivor count (dose: 400.0 mg/kg/injection, schedule: Q04DX002 (ip), vehicle: saline): 1 of 3

Compound: COc1c2ccoc2nc2c(OC)c(OCC(O)C(C)(C)O)ccc12 (centres undefined)
- survivor count (dose: 200.0 mg/kg/injection, schedule: Q01DX Z (ip), vehicle: carboxymethylcellulose (CMC)): 2 of 6

Compound: Nc1nc(N)c2cc(CNc3ccc(C(=O)NC(CC(=O)O)C(=O)O)c(Cl)c3)ccc2n1 (centres undefined)
- T/C (dose: 0.8 mg/kg/injection, schedule: Q01DX009 (ip), vehicle: saline with Tween-80): 144 % of control
- T/C (dose: 0.8 mg/kg/injection, schedule: Q01DX009 (ip), vehicle: saline): 137 % of control
- T/C (dose: 1.2 mg/kg/injection, schedule: Q01DX009 (ip), vehicle: saline with Tween-80): 149 % of control
- T/C (dose: 1.2 mg/kg/injection, schedule: Q01DX009 (ip), vehicle: saline): 148 % of control
- survivor count (dose: 4.0 mg/kg/injection, schedule: Q01DX009 (ip), vehicle: saline): 6 of 6
- survivor count (dose: 6.0 mg/kg/injection, schedule: Q01DX009 (ip), vehicle: saline): 6 of 6
- survivor count (dose: 9.0 mg/kg/injection, schedule: Q01DX009 (ip), vehicle: saline): 6 of 6
- survivor count (dose: 13.0 mg/kg/injection, schedule: Q01DX009 (ip), vehicle: saline): 6 of 6
- survivor count (dose: 20.0 mg/kg/injection, schedule: Q01DX009 (ip), vehicle: saline): 6 of 6
- survivor count (dose: 30.0 mg/kg/injection, schedule: Q01DX009 (ip), vehicle: saline): 6 of 6

Compound: CC(CNC1CCCCC1)OC(=O)c1ccc(N)cc1 (centres undefined)
- survivor count (dose: 150.0 mg/kg/injection, schedule: Q01DX001 (ip), vehicle: saline): 0 of 6
- survivor count [7]: 0 of 6

Compound: Clc1cc2nsnc2c2ccccc12
- survivor count (dose: 100.0 mg/kg/injection, schedule: Q04DX002 (ip), vehicle: gum acacia): 3 of 3
- survivor count (dose: 400.0 mg/kg/injection, schedule: Q04DX002 (ip), vehicle: gum acacia): 3 of 3

Compound: CC1NC(=O)C(NC(=O)c2cnc3ccccc3n2)COC(=O)C(C(C)C)N(C)C(=O)C2CSSCC(C(=O)N(C)C(C(C)C)C(=O)OCC(NC(=O)c3cnc4ccccc4n3)C(=O)NC(C)C(=O)N2C)N(C)C1=O (centres undefined)
- T/C (dose: 200.0 micrograms/kg/injection, schedule: Q01DX009 (ip), vehicle: other): 133 % of control

Compound: COc1ccc(C=Nc2ccc(Cl)cc2)cc1
- survivor count [4]: 6 of 6

Compound: CC(=O)OC1CCC2(C)C3=C(CCC2C1(C)C)C1CCC(C(C)CCC=C(C)C)C1(C)CC3 (centres undefined)
- survivor count [8]: 0 of 3

Compound: CC(=O)NNc1ccccc1Cl
- survivor count [8]: 6 of 6

Compound: CCC(/C=N\NC(=O)CCCC(=O)N/N=C/C(CC)CC)CC
- survivor count [3]: 4 of 4

Compound: O=S(=O)(F)c1ccc(N=C=S)cc1
- survivor count [6]: 4 of 6
- survivor count [1]: 0 of 6
- survivor count [2]: 0 of 6

Compound: O=[N+]([O-])c1ccc(OCCN2CCCC2)cc1
- survivor count [7]: 0 of 6

Compound: CCCCOC(=O)/C=C\C(=O)NC(N)=O
- survivor count (dose: 76.0 mg/kg/injection, schedule: Q01DX Z (ip), vehicle: methylcellulose (MC)): 3 of 6
- survivor count (dose: 114.0 mg/kg/injection, schedule: Q01DX Z (ip), vehicle: methylcellulose (MC)): 1 of 6

Compound: N#CSCc1ccccc1Cl
- survivor count (dose: 100.0 mg/kg/injection, schedule: Q04DX003 (ip), vehicle: saline with Tween-80): 0 of 6
- survivor count (dose: 200.0 mg/kg/injection, schedule: Q04DX003 (ip), vehicle: saline with Tween-80): 0 of 6
- survivor count (dose: 400.0 mg/kg/injection, schedule: Q04DX003 (ip), vehicle: saline with Tween-80): 0 of 6

Compound: O=C(O)c1ccc(Oc2nc3ccccc3s2)cc1
- survivor count [2]: 2 of 6

Compound: O=C(NNC(=O)OCc1ccccc1)OCc1ccccc1
- survivor count [4]: 2 of 6
